The source of these data is paper PMC12873737.

Sequences of proteins named here, by UniProt entry; tags and fusion partners are left off.
UniProt Q9R1A8: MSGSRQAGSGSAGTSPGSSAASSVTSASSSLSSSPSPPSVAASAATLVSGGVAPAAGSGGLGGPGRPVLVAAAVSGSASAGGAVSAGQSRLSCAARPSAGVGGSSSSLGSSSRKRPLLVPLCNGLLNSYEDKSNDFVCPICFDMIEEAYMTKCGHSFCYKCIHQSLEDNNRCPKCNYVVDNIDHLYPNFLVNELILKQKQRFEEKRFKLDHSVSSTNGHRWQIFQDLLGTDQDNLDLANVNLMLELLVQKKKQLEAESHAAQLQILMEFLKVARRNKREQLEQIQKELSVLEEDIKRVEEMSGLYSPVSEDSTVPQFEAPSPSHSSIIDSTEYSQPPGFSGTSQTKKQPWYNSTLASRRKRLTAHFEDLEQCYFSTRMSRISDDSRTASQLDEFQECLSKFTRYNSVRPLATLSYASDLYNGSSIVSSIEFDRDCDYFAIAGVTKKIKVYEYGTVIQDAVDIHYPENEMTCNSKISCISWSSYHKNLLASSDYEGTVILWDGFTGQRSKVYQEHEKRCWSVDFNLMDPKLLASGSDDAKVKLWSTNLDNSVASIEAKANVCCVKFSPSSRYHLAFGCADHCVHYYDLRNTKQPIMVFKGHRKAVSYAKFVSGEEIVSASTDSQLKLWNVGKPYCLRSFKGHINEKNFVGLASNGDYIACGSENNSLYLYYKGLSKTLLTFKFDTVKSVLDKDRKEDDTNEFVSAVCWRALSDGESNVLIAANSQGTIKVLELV

This test concerns the target T1, HA-Rhbdf2 (rhomboid 5 homolog 2), expressed in AML12 cells (UniProt Q80WQ6).
T1 sequence: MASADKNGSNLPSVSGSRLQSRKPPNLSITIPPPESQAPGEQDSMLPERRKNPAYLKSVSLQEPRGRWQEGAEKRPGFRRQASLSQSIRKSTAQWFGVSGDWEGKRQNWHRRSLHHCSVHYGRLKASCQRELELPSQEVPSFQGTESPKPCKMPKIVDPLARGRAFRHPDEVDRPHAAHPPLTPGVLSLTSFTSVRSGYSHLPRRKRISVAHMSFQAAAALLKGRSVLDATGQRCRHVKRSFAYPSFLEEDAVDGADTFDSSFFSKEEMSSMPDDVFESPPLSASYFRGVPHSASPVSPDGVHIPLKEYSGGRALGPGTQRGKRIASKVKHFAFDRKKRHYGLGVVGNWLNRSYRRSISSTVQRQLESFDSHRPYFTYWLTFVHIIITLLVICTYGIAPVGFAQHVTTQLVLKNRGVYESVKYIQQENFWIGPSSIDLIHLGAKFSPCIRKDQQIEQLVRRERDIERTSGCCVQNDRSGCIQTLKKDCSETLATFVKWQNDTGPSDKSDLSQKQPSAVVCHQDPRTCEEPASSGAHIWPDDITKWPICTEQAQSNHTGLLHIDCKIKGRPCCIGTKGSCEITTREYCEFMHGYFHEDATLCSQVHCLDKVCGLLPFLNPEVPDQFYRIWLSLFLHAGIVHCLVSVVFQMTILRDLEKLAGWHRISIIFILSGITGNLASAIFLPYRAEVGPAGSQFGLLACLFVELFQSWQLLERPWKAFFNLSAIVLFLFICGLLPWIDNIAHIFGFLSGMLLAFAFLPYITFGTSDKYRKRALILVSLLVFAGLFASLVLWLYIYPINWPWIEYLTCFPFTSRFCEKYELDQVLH
Description: affinity purification with mass spectrometry; immunoprecipitation of Rhbdf2-interacting proteins from Rhbdf2-overexpressing and control AML12 stable cell lines after H/R; SDS-PAGE (10% gel), silver staining, LC-MS/MS.

These are yes or no findings as the source states them, for the method shown. In cells and extracts the contact can be indirect. These calls come from enrichment with a bait or labelling near it, and not all partners need be listed. Where a sequence is shown, tags or fusion partners need not be part of it.

Take “Constitutive photomorphogenic 1 (Cop1), endogenous in AML12 cells (from UniProt Q9R1A8 1-733) (enzyme)”: the binding result is listed as “binds”.
